We go through two molecules from publication PMC10378179.

The chains behind the UniProt entries cited, without tags or fusion partners.
UniProt P32121: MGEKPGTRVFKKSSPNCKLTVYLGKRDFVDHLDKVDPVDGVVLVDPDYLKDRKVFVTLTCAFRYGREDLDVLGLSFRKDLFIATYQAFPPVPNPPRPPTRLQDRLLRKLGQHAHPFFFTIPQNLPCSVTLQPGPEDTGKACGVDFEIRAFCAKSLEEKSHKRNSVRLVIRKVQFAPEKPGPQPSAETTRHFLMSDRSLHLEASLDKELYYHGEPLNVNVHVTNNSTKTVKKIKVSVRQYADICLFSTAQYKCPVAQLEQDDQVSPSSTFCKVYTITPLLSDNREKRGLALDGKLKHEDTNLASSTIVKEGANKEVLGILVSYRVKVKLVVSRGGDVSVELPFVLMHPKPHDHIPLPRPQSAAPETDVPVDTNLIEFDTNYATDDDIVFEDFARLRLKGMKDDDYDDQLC

The target of assay [1] is ARRB2-HA full length (UniProt P32121). Description: co-IP; C4-2B cells coexpressing ARRB2-HA and Myc-AURKA; anti-HA IP; Western blot. For orientation: In western blotting, separated proteins are transferred to a membrane and probed.
The target is the same in assay [2]. Description: co-IP; 293T cells cotransfected with ARRB2-HA (full length, NTD or CTD) and Myc-AURKA (full length, regulatory or kinase domain), with or without CXCR7 overexpression; anti-HA IP; 50 mM Tris-HCl pH 7.4, 150 mM NaCl, 1 mM EDTA, 1% Triton X-100; overnight at 4°C; Western blot.
A further assay concerns the target GST-ARRB2 full length (UniProt P32121). In words: pull-down; 1 μg GST-tagged ARRB2 protein incubated 2 hours at 4°C with 1 μg Flag-AURKA in 25 mM Tris-HCl pH 7.5, 1% Triton X-100, 150 mM NaCl, 1 mM MgCl2, 1 mM EDTA; separated by GSH-Sepharose; immunoblot; both purified.

No constants are given. Whether binding was seen depends on the method and setting. For part of these data: Binding seen in cells or lysates may run through a third protein. Some entries that bind do so weakly or less than the wild type. Where a sequence is shown, tags or fusion partners need not be part of it.

B1: Myc-AURKA full length (enzyme, UniProt O14965 1-403)
chain: MDRSKENCISGPVKATAPVGGPKRVLVTQQFPCQNPLPVNSGQAQRVLCPSNSSQRIPLQAQKLVSSHKPVQNQKQKQLQATSVPHPVSRPLNNTQKSKQPLPSAPENNPEEELASKQKNEESKKRQWALEDFEIGRPLGKGKFGNVYLAREKQSKFILALKVLFKAQLEKAGVEHQLRREVEIQSHLRHPNILRLYGYFHDATRVYLILEYAPLGTVYRELQKLSKFDEQRTATYITELANALSYCHSKRVIHRDIKPENLLLGSAGELKIADFGWSVHAPSSRRTTLCGTLDYLPPEMIEGRMHDEKVDLWSLGVLCYEFLVGKPPFEANTYQETYKRISRVEFTFPDFVTEGARDLISRLLKHNPSQRPMLREVLEHPWITANSSKPSNCQNKESASKQS
B1: the binding entry with ARRB2-HA full length [1] and with ARRB2-HA full length [2] was “binds” each time.

B2: FLAG-AURKA protein (enzyme, UniProt O14965 1-403)
chain: MDRSKENCISGPVKATAPVGGPKRVLVTQQFPCQNPLPVNSGQAQRVLCPSNSSQRIPLQAQKLVSSHKPVQNQKQKQLQATSVPHPVSRPLNNTQKSKQPLPSAPENNPEEELASKQKNEESKKRQWALEDFEIGRPLGKGKFGNVYLAREKQSKFILALKVLFKAQLEKAGVEHQLRREVEIQSHLRHPNILRLYGYFHDATRVYLILEYAPLGTVYRELQKLSKFDEQRTATYITELANALSYCHSKRVIHRDIKPENLLLGSAGELKIADFGWSVHAPSSRRTTLCGTLDYLPPEMIEGRMHDEKVDLWSLGVLCYEFLVGKPPFEANTYQETYKRISRVEFTFPDFVTEGARDLISRLLKHNPSQRPMLREVLEHPWITANSSKPSNCQNKESASKQS
As for B2, in the assay with GST-ARRB2 full length, the binding entry is reported as “binds”.
